Reference: PubChem BioAssay AID652259 (Drosophila RNAi Screening Center, 2013)

- Assay: 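Identify new Wingless signalling regulators in fly cells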 (primary screen)
- Cells: Drosophila clone 8 imaginal disc epithelial cells
- Reagent: long dsRNA against Drosophila genes
- Treatment: pathway stimulated by co-transfected Wingless expression plasmid
- Measured: 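Firefly luciferase from a tcf-site Wingless reporter, measured alongside co-transfected Renilla luciferase that tracks transfection; pathway stimulated by a Wingless plasmid; the firefly-to-Renilla ratio is not deposited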
- Direction: firefly reporter light: higher = more Wg reporter light, before normalisation; Renilla control light: higher = more transfected or surviving cells
- Active means: 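a knock-down is a candidate when at least two out of four statistical tests show it departing from its plate mean; one test alone signals a weak candidate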
- Meaning of the calls: active = candidate regulator (raises or lowers reporter); inactive = not a candidate
The deposit covers about 22,000 reagents; below is a random part of those with a known target gene and a result. In the full data, 233 (1.1%) were called active. 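Light values are raw, unnormalised plate reads; the ratio scores behind the reporter calls were not deposited.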 Names joined by + are all predicted targets of the reagent. Not given: the amount of reagent, the time to read-out, the dose of the treatment.

| Gene | dsRNA | reporter change call, replicate 1 | firefly reporter light, replicate 1 | firefly reporter light, replicate 2 | Renilla control light, replicate 1 | Renilla control light, replicate 2 | activity call |
| --- | --- | --- | --- | --- | --- | --- | --- |
| CG8204 | DRSC07106 | – | 6507 | – | 2604 | – | inactive |
| wor (worniu) | DRSC03637 | – | 3404 | 4866 | 1043 | 2864 | inactive |
| nab | DRSC08455 | – | 6787 | – | 3611 | – | inactive |
| nab | DRSC08456 | Wg reporter activity raised | 5680 | – | 2594 | – | inactive |
| EloB (Elongin B) | DRSC16663 | – | 19573 | – | 4762 | – | inactive |
| CG16985 | DRSC08501 | – | 7776 | – | 2608 | – | inactive |
| lncRNA:CR34046 (long non-coding RNA:CR34046) | DRSC14075 | – | 4077 | – | 1302 | – | inactive |
| CG32280 | DRSC08024 | – | 2819 | – | 1584 | – | inactive |
| Gyc89Da (Guanylyl cyclase at 89Da) | DRSC15008 | – | 26918 | – | 6857 | – | inactive |
| Nrx-IV (Neurexin IV) | DRSC11238 | – | 6184 | – | 2739 | – | inactive |
| VAChT (Vesicular acetylcholine transporter) | DRSC13311 | – | 4156 | – | 1792 | – | inactive |
| VAChT (Vesicular acetylcholine transporter) | DRSC16608 | – | 1532 | 5168 | 778 | 904 | inactive |
| Arl6 (ADP ribosylation factor-like 6) | DRSC07031 | – | 9096 | – | 3104 | – | inactive |
| Rsph1 (Radial spoke head protein 1) | DRSC02864 | – | 2749 | 5760 | 1129 | 2938 | inactive |
| Nadk1b (NAD kinase 1b) | DRSC05432 | – | 23948 | – | 19847 | – | inactive |
| Nadk1b (NAD kinase 1b) | DRSC06964 | – | 15789 | – | 4754 | – | inactive |
| Nadk1b (NAD kinase 1b) | DRSC06965 | – | 4987 | – | 1722 | – | inactive |
| Vha68-1 (Vacuolar H[+] ATPase 68kD subunit 1) | DRSC03470 | – | 3216 | 8770 | 1546 | 4296 | inactive |
| CG11200 | DRSC06060 | – | 10128 | – | 2755 | – | inactive |
| Mocs2A + Mocs2B | DRSC13697 | – | 2235 | – | 336 | – | inactive |
| Mocs2A + Mocs2B | DRSC14219 | – | 23059 | – | 20043 | – | inactive |
| sm (smooth) | DRSC05795 | – | 20042 | – | 10299 | – | inactive |
| sm (smooth) | DRSC07686 | – | 7275 | – | 3046 | – | inactive |
| Unc-115b + p24-2 + Unc-115a | DRSC16502 | – | 13440 | – | 4107 | – | inactive |
| CG34166 | DRSC02482 | – | 4981 | 8.63e5 | 1830 | 3.98e5 | inactive |
| CG11777 | DRSC06081 | – | 3817 | 6549 | 698 | 3067 | inactive |
| Rchy1 (Ring finger and CHY zinc finger domain containing 1) | DRSC02542 | – | 2936 | 6489 | 816 | 987 | inactive |
| Gr59b (Gustatory receptor 59b) | DRSC04179 | – | 2428 | 7508 | 997 | 3169 | inactive |
| Toll-6 | DRSC11304 | – | 6621 | – | 2950 | – | inactive |
| CG14221 | DRSC19578 | – | 16109 | – | 10280 | – | inactive |
| grk (gurken) | DRSC03540 | – | 11321 | – | 5768 | – | inactive |
| CG9168 | DRSC08633 | – | 5851 | – | 2288 | – | inactive |
| RpS7 (Ribosomal protein S7) | DRSC15394 | – | 4874 | – | 2071 | – | inactive |
| CG7856 | DRSC04896 | – | 3334 | 7008 | 981 | 3031 | inactive |
| CG3071 | DRSC18526 | – | 3731 | 8507 | 1556 | 3763 | inactive |
| CycG (Cyclin G) | DRSC14324 | – | 2246 | 5993 | 947 | 2075 | inactive |
| DCTN4-p62 (Dynactin 4, p62 subunit) | DRSC06101 | – | 12265 | – | 3456 | – | inactive |
| CG13950 | DRSC00368 | – | 3429 | 5328 | 1336 | 2321 | inactive |
| CG32638 | DRSC18968 | – | 6297 | – | 1285 | – | inactive |
| CG43980 | DRSC11500 | – | 3417 | – | 896 | – | inactive |
| CG43980 | DRSC11646 | – | 20540 | – | 8060 | – | inactive |
| CG43980 | DRSC22923 | – | 4.54e5 | 5.68e5 | 1.82e5 | 86014 | inactive |
| CG13640 | DRSC14639 | – | 14546 | – | 14098 | – | inactive |
| CG10866 | DRSC08171 | – | 5749 | – | 2587 | – | inactive |
| CG7742 | DRSC03066 | – | 5336 | – | 2787 | – | inactive |
| Parp16 (Poly(ADP-ribose) polymerase 16) | DRSC06597 | – | 6440 | – | 2384 | – | inactive |
| eIF3g2 (eukaryotic translation initiation factor 3 subunit g2) | DRSC14275 | – | 20624 | – | 2138 | – | inactive |
| CG4914 | DRSC10458 | – | 4919 | – | 1850 | – | inactive |
| Alk (Anaplastic lymphoma kinase) | DRSC05918 | – | 8934 | 7.72e5 | 2906 | 3.99e5 | inactive |
| CG9997 | DRSC16591 | – | 9608 | – | 2640 | – | inactive |
| CG31029 | DRSC15422 | – | 4760 | – | 1920 | – | inactive |
| Rab40 | DRSC19820 | – | 17782 | – | 11943 | – | inactive |
| CG1494 | DRSC20509 | – | 22759 | – | 9025 | – | inactive |
| CASK | DRSC14588 | – | 37478 | – | 6641 | – | inactive |
| CASK | DRSC16597 | – | 34589 | – | 4965 | – | inactive |
| CASK | DRSC16598 | – | 30701 | – | 6049 | – | inactive |
| CASK | DRSC21917 | – | 3.99e5 | 4.31e5 | 2.01e5 | 1.86e5 | inactive |
| CG3880 | DRSC04428 | – | 3796 | 10492 | 1122 | 3693 | inactive |
| CG3880 | DRSC21404 | – | 3.67e5 | 3.51e5 | 1.53e5 | 1.34e5 | inactive |
| bb8 (big bubble 8) | DRSC15578 | – | 13200 | – | 11115 | – | inactive |
| Atx2 (Ataxin-2) | DRSC15727 | Wg reporter activity raised | 7324 | – | 443 | – | active |
| Obp50d (Odorant-binding protein 50d) | DRSC05483 | – | 17249 | – | 13984 | – | inactive |
| Lim3 | DRSC02475 | – | 6476 | 10000 | 1634 | 4598 | inactive |
| Lim3 | DRSC03363 | Wg reporter activity raised | 6890 | 15733 | 489 | 1436 | active |
| Lim3 | DRSC22183 | – | 8.80e5 | 7.80e5 | 1.15e5 | 1.07e5 | inactive |
| Lim3 | DRSC22650 | – | 4.76e5 | 4.52e5 | 56007 | 44997 | inactive |
| Hil (Hillarin) | DRSC05989 | – | 19869 | – | 5328 | – | inactive |
| Hil (Hillarin) | DRSC06395 | – | 4721 | – | 2924 | – | inactive |
| CG18549 | DRSC15347 | – | 16119 | – | 2117 | – | inactive |
| trpl (transient receptor potential-like) | DRSC06728 | – | 3185 | 10128 | 1285 | 4640 | inactive |
| trpl (transient receptor potential-like) | DRSC06729 | – | 4950 | 9723 | 1639 | 5786 | inactive |
| CG5348 | DRSC06933 | – | 7786 | – | 3009 | – | inactive |
| asRNA:CR31845 (antisense RNA:CR31845) | DRSC22257 | – | 6.23e5 | 6.78e5 | 1.37e5 | 1.43e5 | inactive |

Quoted from the listing for reference:
| Gene | dsRNA | reporter change call, replicate 1 | firefly reporter light, replicate 1 | firefly reporter light, replicate 2 | Renilla control light, replicate 1 | Renilla control light, replicate 2 | activity call |
| --- | --- | --- | --- | --- | --- | --- | --- |
| CG31029 | DRSC15422 | – | 4760 | – | 1920 | – | inactive |
| Rab40 | DRSC19820 | – | 17782 | – | 11943 | – | inactive |
| CG1494 | DRSC20509 | – | 22759 | – | 9025 | – | inactive |
| CASK | DRSC14588 | – | 37478 | – | 6641 | – | inactive |
